Values quoted from earlier work in US20260248874A1, “USE OF SUGAR CANE EXTRACTS IN THE TREATMENT OR PREVENTION OF MICROBIAL INFECTIONS AND DYSBIOSIS” (priority 2020, published 2026).
Read-outs that look alike come from different tables or passages of the source. For at least one compound, name, drawing or mass did not settle the structure.

Legend:
COVID-19 [1] = system: COVID-19
COVID-19 [2] = settings: in vivo

| SMILES | reduction of mortality (COVID-19 [1]; patients on ventilators) | reduction of mortality (COVID-19 [1]; patients requiring only oxygen) | time to recovery (COVID-19 [2]) |
| --- | --- | --- | --- |
| C[C@@H]1C[C@H]2[C@@H]3CCC4=CC(=O)C=C[C@]4(C)[C@@]3(F)[C@@H](O)C[C@]2(C)[C@@]1(O)C(=O)CO [dexamethasone] | about one third | about one fifth | – |
| CCC(CC)COC(=O)[C@H](C)N[P@](=O)(OC[C@H]1O[C@@](C#N)(c2ccc3c(N)ncnn23)[C@H](O)[C@@H]1O)Oc1ccccc1 [remdesivir] | – | – | reduce the time to recovery |
